The list shows a part of the results.
Legend:
Assay in all cases: log2 fold change, soluble protein after heating vs DMSO (PISA); higher = thermal stabilisation; K562 lysate, 10 uM; active = over 0.2 and 3.5 SD of the protein, either way, in both replicates (recomputed)
[1] = compound: NCC(=O)Nc1ccc(-n2nc(C(F)(F)F)cc2-c2ccc3c(ccc4ccccc43)c2)cc1
Procedure, shortened: (§1)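 Log-two fold change in thermal stability relative to solvent controls is reported from duplicates. For each sample, crude K562 extract from dounce-homogenised pellets in PBS pH 7.4 with 1 mM MgCl2, at 1 mg/mL protein, was treated with 10 μM compound for 30 min. Aliquots heated for 3 min across 48°C-58°C were pooled, brought to 0.5% NP-40 at 4°C and cleared at 21,000xg for 90 min. The supernatant was quantified by TMTpro 16plex LC-MS/MS with channel sums equalised.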

Protein sequences, listed by entry. Tags and fused reporters are not part of them. Lines headed by an entry give the natural chain unless they say otherwise; changes in a name come on top.
UniProt P11413, whole entry, looked up: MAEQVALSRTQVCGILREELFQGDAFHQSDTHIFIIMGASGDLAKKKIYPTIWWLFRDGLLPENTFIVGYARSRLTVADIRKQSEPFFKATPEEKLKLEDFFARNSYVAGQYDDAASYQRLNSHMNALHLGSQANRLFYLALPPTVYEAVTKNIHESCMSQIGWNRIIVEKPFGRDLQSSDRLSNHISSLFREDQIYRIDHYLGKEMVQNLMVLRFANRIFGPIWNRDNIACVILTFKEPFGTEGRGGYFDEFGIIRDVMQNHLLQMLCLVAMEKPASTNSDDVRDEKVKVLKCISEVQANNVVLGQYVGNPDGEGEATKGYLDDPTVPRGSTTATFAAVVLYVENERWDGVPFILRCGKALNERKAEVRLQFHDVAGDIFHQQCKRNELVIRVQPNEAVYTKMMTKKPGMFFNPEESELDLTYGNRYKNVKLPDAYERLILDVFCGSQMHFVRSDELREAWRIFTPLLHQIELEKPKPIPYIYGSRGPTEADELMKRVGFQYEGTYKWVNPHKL
UniProt P16383: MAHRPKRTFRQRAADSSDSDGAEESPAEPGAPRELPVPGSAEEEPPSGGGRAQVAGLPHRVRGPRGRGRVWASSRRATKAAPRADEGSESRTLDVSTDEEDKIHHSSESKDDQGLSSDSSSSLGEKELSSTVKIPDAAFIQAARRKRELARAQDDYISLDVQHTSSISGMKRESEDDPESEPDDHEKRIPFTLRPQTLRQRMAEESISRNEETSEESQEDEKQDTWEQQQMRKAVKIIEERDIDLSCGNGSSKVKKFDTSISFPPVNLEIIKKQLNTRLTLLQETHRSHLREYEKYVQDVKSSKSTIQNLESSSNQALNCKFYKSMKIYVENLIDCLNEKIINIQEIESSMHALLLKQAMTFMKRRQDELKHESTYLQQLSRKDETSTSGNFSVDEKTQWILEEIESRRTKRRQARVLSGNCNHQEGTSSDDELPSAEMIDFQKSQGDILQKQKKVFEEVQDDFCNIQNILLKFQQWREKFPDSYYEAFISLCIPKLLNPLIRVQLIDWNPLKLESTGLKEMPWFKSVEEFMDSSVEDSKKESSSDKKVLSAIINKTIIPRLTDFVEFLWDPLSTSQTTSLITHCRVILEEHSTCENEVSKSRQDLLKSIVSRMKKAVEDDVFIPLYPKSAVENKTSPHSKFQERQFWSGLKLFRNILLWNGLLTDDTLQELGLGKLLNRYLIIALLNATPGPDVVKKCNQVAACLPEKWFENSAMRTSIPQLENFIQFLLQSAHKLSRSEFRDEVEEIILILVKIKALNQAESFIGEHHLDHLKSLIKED
UniProt Q5JV73, whole entry, looked up: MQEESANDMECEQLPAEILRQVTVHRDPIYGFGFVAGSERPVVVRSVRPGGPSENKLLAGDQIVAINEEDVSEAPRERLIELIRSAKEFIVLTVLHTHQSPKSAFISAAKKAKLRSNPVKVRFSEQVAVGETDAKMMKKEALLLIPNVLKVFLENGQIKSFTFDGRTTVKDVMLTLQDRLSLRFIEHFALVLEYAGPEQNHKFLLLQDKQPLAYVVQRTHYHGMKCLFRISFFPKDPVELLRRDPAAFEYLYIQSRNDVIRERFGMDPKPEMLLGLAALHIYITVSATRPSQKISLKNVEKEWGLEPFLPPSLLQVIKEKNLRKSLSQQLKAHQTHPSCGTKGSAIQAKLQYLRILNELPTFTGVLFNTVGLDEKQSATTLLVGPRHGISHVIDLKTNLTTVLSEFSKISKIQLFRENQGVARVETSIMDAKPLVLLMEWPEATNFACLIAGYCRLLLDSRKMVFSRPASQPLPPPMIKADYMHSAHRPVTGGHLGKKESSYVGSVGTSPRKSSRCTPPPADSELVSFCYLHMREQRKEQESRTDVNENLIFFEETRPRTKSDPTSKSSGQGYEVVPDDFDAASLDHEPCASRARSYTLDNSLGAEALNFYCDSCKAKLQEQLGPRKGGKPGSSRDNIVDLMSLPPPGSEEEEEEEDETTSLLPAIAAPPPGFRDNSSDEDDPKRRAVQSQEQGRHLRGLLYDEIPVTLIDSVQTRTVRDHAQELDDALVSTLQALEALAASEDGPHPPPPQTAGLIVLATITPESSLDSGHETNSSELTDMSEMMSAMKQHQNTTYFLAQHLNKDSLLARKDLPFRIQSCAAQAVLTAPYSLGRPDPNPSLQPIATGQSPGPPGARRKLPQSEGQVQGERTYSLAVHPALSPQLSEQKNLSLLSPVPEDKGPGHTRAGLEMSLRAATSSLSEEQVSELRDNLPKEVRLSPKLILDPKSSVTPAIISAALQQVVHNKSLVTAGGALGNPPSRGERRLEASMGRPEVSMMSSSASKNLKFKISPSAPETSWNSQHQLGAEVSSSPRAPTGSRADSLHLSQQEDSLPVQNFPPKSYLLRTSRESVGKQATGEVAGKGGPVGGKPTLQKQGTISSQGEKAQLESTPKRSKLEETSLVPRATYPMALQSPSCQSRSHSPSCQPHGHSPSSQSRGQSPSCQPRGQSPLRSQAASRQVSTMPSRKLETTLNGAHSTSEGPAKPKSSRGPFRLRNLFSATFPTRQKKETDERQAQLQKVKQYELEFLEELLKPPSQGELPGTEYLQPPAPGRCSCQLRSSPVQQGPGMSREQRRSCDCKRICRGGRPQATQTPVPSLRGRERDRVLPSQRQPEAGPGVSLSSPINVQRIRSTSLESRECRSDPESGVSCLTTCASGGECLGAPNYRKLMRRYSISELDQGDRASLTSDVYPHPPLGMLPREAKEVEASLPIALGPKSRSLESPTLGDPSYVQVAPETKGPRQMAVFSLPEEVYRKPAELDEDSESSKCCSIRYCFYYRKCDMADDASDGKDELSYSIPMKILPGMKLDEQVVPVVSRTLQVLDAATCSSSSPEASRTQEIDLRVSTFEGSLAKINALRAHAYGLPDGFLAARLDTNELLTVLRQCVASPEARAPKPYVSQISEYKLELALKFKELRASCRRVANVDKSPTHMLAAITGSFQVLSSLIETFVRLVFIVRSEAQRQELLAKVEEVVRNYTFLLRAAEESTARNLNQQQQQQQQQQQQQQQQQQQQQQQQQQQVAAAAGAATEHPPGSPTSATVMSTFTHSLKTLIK
UniProt Q01415: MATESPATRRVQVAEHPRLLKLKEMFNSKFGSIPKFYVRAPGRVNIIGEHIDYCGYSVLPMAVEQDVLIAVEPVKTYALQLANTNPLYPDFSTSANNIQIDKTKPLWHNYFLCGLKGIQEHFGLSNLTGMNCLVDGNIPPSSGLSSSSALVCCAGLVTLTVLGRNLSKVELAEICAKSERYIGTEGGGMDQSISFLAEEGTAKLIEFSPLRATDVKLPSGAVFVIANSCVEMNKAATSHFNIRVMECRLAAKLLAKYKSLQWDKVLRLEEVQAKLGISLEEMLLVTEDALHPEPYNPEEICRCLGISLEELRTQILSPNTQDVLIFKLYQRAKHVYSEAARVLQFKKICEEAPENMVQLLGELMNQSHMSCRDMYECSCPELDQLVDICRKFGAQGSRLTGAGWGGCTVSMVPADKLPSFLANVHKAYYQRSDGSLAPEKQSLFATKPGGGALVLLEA
UniProt Q99988: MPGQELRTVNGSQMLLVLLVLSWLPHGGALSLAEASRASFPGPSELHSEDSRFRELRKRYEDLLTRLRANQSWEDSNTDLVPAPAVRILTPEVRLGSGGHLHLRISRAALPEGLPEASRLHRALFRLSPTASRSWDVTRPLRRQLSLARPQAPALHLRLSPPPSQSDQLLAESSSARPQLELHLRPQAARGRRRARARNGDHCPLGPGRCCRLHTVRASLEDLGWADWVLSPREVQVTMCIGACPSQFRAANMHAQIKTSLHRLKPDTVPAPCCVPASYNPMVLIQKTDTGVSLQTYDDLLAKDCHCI
UniProt Q06546: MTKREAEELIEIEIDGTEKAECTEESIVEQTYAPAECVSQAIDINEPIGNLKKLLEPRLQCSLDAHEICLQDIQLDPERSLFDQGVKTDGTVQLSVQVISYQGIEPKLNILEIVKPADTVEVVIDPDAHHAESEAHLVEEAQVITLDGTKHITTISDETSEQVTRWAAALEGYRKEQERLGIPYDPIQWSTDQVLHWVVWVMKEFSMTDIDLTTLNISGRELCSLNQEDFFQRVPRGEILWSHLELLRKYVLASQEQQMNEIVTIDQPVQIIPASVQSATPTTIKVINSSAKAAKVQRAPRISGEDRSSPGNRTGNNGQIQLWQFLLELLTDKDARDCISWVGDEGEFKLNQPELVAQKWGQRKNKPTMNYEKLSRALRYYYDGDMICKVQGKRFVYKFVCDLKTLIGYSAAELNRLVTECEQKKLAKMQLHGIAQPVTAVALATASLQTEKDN
UniProt Q8IWF2: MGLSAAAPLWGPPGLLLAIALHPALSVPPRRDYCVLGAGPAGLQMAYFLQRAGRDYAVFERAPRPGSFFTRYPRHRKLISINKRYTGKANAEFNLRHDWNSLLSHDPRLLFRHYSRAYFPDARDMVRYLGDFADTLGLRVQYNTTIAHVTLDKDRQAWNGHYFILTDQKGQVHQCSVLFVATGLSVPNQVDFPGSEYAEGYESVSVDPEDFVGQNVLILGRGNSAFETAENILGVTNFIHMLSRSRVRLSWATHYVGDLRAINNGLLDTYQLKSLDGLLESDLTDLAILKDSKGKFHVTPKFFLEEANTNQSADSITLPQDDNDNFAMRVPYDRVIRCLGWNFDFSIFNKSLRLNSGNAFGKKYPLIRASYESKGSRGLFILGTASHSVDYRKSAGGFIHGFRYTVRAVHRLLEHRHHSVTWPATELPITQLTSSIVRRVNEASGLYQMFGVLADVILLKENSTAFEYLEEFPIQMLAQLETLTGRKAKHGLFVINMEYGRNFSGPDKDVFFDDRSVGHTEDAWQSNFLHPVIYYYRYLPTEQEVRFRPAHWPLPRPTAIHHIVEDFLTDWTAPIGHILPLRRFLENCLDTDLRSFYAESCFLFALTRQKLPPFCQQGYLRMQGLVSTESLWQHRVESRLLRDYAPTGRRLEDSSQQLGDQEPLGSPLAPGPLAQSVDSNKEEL
UniProt Q86SF2: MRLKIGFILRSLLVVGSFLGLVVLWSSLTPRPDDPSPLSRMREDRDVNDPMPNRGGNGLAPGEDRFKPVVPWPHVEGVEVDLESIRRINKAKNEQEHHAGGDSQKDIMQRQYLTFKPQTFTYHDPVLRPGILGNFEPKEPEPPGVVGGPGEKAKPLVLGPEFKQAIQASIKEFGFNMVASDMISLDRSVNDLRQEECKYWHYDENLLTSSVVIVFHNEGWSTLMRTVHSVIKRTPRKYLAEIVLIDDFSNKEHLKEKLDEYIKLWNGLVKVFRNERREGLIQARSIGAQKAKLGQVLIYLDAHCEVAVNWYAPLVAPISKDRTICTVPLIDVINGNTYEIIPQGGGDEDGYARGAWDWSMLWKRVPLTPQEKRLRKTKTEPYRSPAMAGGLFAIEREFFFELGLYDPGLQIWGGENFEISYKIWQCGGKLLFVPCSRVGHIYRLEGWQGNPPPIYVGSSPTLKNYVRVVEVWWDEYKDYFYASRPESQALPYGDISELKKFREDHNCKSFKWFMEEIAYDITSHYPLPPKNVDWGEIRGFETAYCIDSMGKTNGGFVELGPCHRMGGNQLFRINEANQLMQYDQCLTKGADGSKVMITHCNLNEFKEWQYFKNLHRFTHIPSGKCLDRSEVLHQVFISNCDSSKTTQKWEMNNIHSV
UniProt Q8IY81: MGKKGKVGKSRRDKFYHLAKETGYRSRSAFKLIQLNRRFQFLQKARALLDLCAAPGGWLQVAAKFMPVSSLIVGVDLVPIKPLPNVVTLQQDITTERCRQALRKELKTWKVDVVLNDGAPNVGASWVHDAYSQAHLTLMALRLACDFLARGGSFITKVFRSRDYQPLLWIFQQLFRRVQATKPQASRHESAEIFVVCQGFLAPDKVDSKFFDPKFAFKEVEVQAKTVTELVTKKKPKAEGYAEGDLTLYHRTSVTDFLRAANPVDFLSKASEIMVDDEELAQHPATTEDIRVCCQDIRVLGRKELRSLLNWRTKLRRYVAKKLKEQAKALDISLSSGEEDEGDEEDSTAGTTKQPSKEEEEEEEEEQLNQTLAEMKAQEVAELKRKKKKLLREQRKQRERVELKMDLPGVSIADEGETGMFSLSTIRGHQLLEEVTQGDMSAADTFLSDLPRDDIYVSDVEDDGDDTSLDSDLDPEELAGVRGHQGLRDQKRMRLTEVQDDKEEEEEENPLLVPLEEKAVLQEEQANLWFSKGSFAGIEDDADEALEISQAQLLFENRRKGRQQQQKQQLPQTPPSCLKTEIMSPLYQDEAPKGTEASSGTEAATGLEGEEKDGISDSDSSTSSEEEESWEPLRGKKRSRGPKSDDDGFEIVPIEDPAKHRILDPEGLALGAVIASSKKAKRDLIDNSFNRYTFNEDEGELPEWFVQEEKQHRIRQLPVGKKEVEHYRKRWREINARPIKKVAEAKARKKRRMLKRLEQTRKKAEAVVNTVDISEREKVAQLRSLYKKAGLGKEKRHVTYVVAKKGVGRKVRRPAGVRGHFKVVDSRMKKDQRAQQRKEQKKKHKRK

[2] = compound: O=C(CCCCCCC(=O)Nc1ccccc1)NO [vorinostat]
Procedure, shortened: as §1

[3] = compound: O=C(O)c1ccc2c(c1)nc(Nc1cccc(Cl)c1)c1ccncc12 [silmitasertib]
Procedure, shortened: as §1

[4] = compound: O=C1NC(=O)C(c2cnc3ccccn23)=C1c1cn2c3c(cc(F)cc13)CN(C(=O)N1CCCCC1)CC2
Procedure, shortened: as §1

[5] = compound: c1cn2cc(-c3ccc4cn[nH]c4c3)nc(Nc3ccc(N4CCOCC4)cc3)c2n1 [entospletinib]
Procedure, shortened: as §1

Measured: log2 fold change

G6PD isoform 2 (UniProt P11413)
inactive: [1] 0.008 | [3] -0.008 | [4] -0.003 | [5] 0.032
active: [2] -0.46

GCFC2 (UniProt P16383)
inactive: [1] 0.006 | [2] -0.113 | [3] 0.007 | [4] 0.026 | [5] -0.023

FRMPD3 (UniProt Q5JV73)
inactive: [1] 0.029 | [2] -0.308 | [3] 0

GALK2 (UniProt Q01415)
inactive: [1] 0.011 | [2] -0.012 | [3] 0.04 | [4] 0.029 | [5] -0.009

GDF15 (UniProt Q99988)
inactive: [1] 0.081 | [2] 0.043 | [3] 0.065 | [4] -0.12

GABPA (UniProt Q06546)
inactive: [1] 0.009 | [2] -0.173 | [3] 0.006 | [4] -0.008 | [5] -0.001

FOXRED2 (UniProt Q8IWF2)
inactive: [1] 0.003 | [2] 0.01 | [3] 0.013 | [4] -0.058 | [5] -0.006

GALNT7 (UniProt Q86SF2)
inactive: [1] 0.028 | [2] 0.156 | [3] -0.037 | [4] 0.005 | [5] -0.034

GALE (UniProt Q14376)
inactive: [1] -0.034 | [2] -0.273 | [3] 0.085 | [4] -0.063 | [5] 0.047

FTSJ3 (UniProt Q8IY81)
inactive: [1] -0.034 | [2] 0.068 | [3] 0.017 | [4] 0.012 | [5] -0.043
